Article PMC2613882, “The FF domains of yeast U1 snRNP protein Prp40 mediate interactions with Luc7 and Snu71” (BMC Biochemistry, 2008)
No constants are given. Whether binding was seen depends on the method and setting. For part of these data: In cells and extracts the contact can be indirect. Some results given as binding are weak or reduced against the parent protein; the word gives no strength. Tags and fused reporters may be left off the sequences shown.

How the values were obtained:
[1] = target: T1, Prp40 (Prp40wt, amino acids 1-583) (Saccharomyces cerevisiae) (UniProt P33203); test: two-hybrid; systematic pairwise tests of all U1snRNP associated proteins with full-length bait and prey constructs
T1 sequence: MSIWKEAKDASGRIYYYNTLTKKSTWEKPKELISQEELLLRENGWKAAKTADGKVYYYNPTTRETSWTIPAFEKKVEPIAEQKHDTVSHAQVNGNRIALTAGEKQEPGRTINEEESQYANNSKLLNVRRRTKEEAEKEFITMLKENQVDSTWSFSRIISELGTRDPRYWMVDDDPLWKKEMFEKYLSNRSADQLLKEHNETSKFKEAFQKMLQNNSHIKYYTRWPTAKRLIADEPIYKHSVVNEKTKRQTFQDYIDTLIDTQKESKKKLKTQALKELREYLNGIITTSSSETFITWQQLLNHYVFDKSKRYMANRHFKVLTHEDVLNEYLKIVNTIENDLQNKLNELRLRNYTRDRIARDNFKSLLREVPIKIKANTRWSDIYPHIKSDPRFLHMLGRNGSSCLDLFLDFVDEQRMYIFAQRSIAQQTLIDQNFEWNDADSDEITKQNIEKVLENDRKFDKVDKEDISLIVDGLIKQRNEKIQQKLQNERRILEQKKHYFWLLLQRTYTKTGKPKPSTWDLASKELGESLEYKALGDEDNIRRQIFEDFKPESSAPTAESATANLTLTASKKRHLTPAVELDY

[2] = target: T2, Prp40FF1-4 (amino acids 129-560), Gal4-DBD fusion (Saccharomyces cerevisiae) (UniProt P33203); test: two-hybrid; genome-wide screens with isolated Prp40 FF domains or combinations as baits against the prey array; data not shown
T2 sequence: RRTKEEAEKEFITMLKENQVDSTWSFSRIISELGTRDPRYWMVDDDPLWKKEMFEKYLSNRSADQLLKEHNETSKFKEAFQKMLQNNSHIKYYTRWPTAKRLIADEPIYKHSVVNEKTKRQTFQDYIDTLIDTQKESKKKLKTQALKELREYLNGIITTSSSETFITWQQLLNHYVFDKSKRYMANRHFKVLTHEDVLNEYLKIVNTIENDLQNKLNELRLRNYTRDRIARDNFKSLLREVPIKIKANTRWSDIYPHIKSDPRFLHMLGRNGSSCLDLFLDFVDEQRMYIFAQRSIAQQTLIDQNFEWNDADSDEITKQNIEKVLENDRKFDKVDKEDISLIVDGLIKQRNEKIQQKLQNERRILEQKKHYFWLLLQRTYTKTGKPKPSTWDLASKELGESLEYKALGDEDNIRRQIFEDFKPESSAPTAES

[3] = target: T3, Prp40FF2-3 (amino acids 196-428), Gal4-DBD fusion (Saccharomyces cerevisiae) (UniProt P33203); test: as above
T3 sequence: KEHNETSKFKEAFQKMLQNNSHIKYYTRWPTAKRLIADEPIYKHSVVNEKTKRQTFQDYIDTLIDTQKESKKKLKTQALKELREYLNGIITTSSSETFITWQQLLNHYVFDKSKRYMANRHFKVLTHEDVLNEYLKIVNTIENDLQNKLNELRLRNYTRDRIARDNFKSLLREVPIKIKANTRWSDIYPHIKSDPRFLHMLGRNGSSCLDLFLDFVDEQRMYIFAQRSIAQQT

[4] = target: T4, Prp40FF1-3 (amino acids 129-428), Gal4-DBD fusion (Saccharomyces cerevisiae) (UniProt P33203); test: as above
T4 sequence: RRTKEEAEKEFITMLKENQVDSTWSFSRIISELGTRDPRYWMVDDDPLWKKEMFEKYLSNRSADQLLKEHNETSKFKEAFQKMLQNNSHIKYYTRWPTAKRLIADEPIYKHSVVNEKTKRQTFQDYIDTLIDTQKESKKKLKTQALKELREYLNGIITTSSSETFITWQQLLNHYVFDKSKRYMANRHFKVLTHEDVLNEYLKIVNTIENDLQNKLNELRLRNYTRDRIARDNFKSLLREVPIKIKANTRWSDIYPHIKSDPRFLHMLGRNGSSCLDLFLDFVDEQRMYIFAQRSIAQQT

[5] = target: T3, Prp40FF2-3 (amino acids 196-428), Gal4-DBD fusion (Saccharomyces cerevisiae); test: two-hybrid; mapping: Prp40 FF domain constructs as Gal4DBD baits against full-length clones and fragments of Snu71 and Luc7 as preys
[6] = target: T4, Prp40FF1-3 (amino acids 129-428), Gal4-DBD fusion (Saccharomyces cerevisiae); test: as above
[7] = target: T1, Prp40 (Prp40wt, amino acids 1-583) (Saccharomyces cerevisiae); test: two-hybrid; genome-wide screen: Gal4DBD baits (full-length proteins, FF domain baits) mated to an array of most of the ~6,000 S. cerevisiae ORFs as Gal4AD fusions; positives re-arrayed and retested
[8] = target: T5, GST-Prp40FF1 (amino acids 129-201) (Saccharomyces cerevisiae, UniProt P33203 129-201); test: pull-down; GST-FF domain fusions on glutathione-Sepharose beads incubated with in vitro-translated 35S-labeled protein; 40 mM Hepes pH 8.0, 2.5 mM MgCl2, 0.1 mM EDTA, 1 mM DTT, 0.2% Triton-X-100, 100 mM NaCl; 2 h at 4°C; autoradiography; only the target purified
T5 construct: Prp40, S. cerevisiae, residues 129-201 (Prp40FF1); also called GST-FF1; source: E. coli BL21, purified (glutathione Sepharose 4B)
T5 sequence (looked up): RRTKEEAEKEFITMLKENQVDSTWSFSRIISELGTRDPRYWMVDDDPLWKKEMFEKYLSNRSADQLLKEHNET

[9] = target: T6, GST-Prp40FF2 (amino acids 196-264) (Saccharomyces cerevisiae) (UniProt P33203); test: as above
T6 sequence: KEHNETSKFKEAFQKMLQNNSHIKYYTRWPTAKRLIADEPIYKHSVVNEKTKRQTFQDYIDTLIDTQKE

[10] = target: T7, GST-Prp40FF1-2 (amino acids 129-264) (Saccharomyces cerevisiae, UniProt P33203 129-264); test: as above
T7 construct: Prp40, S. cerevisiae, residues 129-264 (Prp40FF1-2); also called GST-FF1-2; source: E. coli BL21, purified (glutathione Sepharose 4B)
T7 sequence (looked up): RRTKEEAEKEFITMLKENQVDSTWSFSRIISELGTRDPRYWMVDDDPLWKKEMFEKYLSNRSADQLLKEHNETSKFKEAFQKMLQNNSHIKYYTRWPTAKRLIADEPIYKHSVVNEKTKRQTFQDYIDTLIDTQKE

[11] = target: T8, Prp40FF1 (amino acids 129-201), Gal4-DBD fusion (Saccharomyces cerevisiae) (UniProt P33203); test: two-hybrid; mapping: Prp40 FF domain constructs as Gal4DBD baits against full-length clones and fragments of Snu71 and Luc7 as preys
T8 sequence: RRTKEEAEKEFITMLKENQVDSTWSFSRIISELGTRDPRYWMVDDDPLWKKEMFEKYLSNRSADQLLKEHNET

[12] = target: T9, Snu71 (Snu71 wt, amino acids 1-620) (Saccharomyces cerevisiae), P53207; test: two-hybrid; systematic pairwise tests of all U1snRNP associated proteins with full-length bait and prey constructs; settings: remark: other sources report otherwise
T9 chain: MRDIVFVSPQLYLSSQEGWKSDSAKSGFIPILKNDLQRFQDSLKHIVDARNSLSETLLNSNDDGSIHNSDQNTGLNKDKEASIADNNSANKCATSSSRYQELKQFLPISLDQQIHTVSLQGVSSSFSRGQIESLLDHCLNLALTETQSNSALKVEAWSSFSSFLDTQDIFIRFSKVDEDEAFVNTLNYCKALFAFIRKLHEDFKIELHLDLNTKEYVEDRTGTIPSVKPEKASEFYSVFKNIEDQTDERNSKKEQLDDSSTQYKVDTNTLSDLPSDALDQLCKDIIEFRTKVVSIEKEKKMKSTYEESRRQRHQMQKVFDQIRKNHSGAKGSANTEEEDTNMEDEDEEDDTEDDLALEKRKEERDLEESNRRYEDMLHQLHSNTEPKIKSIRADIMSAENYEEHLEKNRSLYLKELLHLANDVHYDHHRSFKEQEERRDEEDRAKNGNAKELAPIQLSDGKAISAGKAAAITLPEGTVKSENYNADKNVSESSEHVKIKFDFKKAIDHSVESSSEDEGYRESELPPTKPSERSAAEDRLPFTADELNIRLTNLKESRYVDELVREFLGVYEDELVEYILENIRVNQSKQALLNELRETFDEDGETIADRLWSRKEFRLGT

B1: Snu71 (Snu71 wt, amino acids 1-620) (protein, UniProt P53207 1-620)
chain: MRDIVFVSPQLYLSSQEGWKSDSAKSGFIPILKNDLQRFQDSLKHIVDARNSLSETLLNSNDDGSIHNSDQNTGLNKDKEASIADNNSANKCATSSSRYQELKQFLPISLDQQIHTVSLQGVSSSFSRGQIESLLDHCLNLALTETQSNSALKVEAWSSFSSFLDTQDIFIRFSKVDEDEAFVNTLNYCKALFAFIRKLHEDFKIELHLDLNTKEYVEDRTGTIPSVKPEKASEFYSVFKNIEDQTDERNSKKEQLDDSSTQYKVDTNTLSDLPSDALDQLCKDIIEFRTKVVSIEKEKKMKSTYEESRRQRHQMQKVFDQIRKNHSGAKGSANTEEEDTNMEDEDEEDDTEDDLALEKRKEERDLEESNRRYEDMLHQLHSNTEPKIKSIRADIMSAENYEEHLEKNRSLYLKELLHLANDVHYDHHRSFKEQEERRDEEDRAKNGNAKELAPIQLSDGKAISAGKAAAITLPEGTVKSENYNADKNVSESSEHVKIKFDFKKAIDHSVESSSEDEGYRESELPPTKPSERSAAEDRLPFTADELNIRLTNLKESRYVDELVREFLGVYEDELVEYILENIRVNQSKQALLNELRETFDEDGETIADRLWSRKEFRLGT
B1 was tested. Which binding [1] did it give?
The binding was “binds”.

What about the binding [2] of the same binder?
The binding was “binds”.

What about the binding [3] of the same binder?
Its binding is “binds”.

And the binding [4]?
The binding was “binds”.

And the binding [5]?
The binding was “binds”.

What about the binding [6] of the same binder?
The binding was “binds”.

And the binding [7]?
Its binding is “binds”.

B2: Luc7, full-length, two-hybrid fusion (protein, UniProt Q07508 1-261)
chain: MSTMSTPAAEQRKLVEQLMGRDFSFRHNRYSHQKRDLGLHDPKICKSYLVGECPYDLFQGTKQSLGKCPQMHLTKHKIQYEREVKQGKTFPEFEREYLAILSRFVNECNGQISVALQNLKHTAEERMKIQQVTEELDVLDVRIGLMGQEIDSLIRADEVSMGMLQSVKLQELISKRKEVAKRVRNITENVGQSAQQKLQVCEVCGAYLSRLDTDRRLADHFLGKIHLGYVKMREDYDRLMKNNRTTNASKTATTLPGRRFV
How did the binding [1] turn out when B2 was run?
The binding was “binds”.

And the binding [2]?
Its binding is “binds”.

What about the binding [7] of the same binder?
The binding was “binds”.

B3: Luc7, in vitro translated and 35S-labeled (protein, UniProt Q07508 1-261)
chain: MSTMSTPAAEQRKLVEQLMGRDFSFRHNRYSHQKRDLGLHDPKICKSYLVGECPYDLFQGTKQSLGKCPQMHLTKHKIQYEREVKQGKTFPEFEREYLAILSRFVNECNGQISVALQNLKHTAEERMKIQQVTEELDVLDVRIGLMGQEIDSLIRADEVSMGMLQSVKLQELISKRKEVAKRVRNITENVGQSAQQKLQVCEVCGAYLSRLDTDRRLADHFLGKIHLGYVKMREDYDRLMKNNRTTNASKTATTLPGRRFV
modifications: [35S] methionine
How did the binding [8] turn out when B3 was run?
The binding was “binds”.

What about the binding [9] of the same binder?
The binding was “binds weakly”.

What about the binding [10] of the same binder?
The binding was “binds”.

B4: Luc7 II (C-terminal fragment of Luc7, aa 93–261), Gal4-AD fusion (domain or fragment, UniProt Q07508 93-261)
chain: FEREYLAILSRFVNECNGQISVALQNLKHTAEERMKIQQVTEELDVLDVRIGLMGQEIDSLIRADEVSMGMLQSVKLQELISKRKEVAKRVRNITENVGQSAQQKLQVCEVCGAYLSRLDTDRRLADHFLGKIHLGYVKMREDYDRLMKNNRTTNASKTATTLPGRRFV
B4 was tested. Which binding [11] did it give?
The binding was “binds”.

B5: Luc7, full-length, two-hybrid fusion, Q07508 1-261 (protein)
chain: MSTMSTPAAEQRKLVEQLMGRDFSFRHNRYSHQKRDLGLHDPKICKSYLVGECPYDLFQGTKQSLGKCPQMHLTKHKIQYEREVKQGKTFPEFEREYLAILSRFVNECNGQISVALQNLKHTAEERMKIQQVTEELDVLDVRIGLMGQEIDSLIRADEVSMGMLQSVKLQELISKRKEVAKRVRNITENVGQSAQQKLQVCEVCGAYLSRLDTDRRLADHFLGKIHLGYVKMREDYDRLMKNNRTTNASKTATTLPGRRFV
With B5 as the binder, how does the binding [12] read?
Its binding is “no binding”.
